# Source: PubChem BioAssay AID1347076 (National Center for Advancing Translational Sciences (NCATS), 2019)
# The whole screen tested about 400,000 compounds, of which about 13,000 (3.2%) were called active. Inconclusive means that the source gave no clear call. Such entries were picked first, then a sample of the others. The call rests on the fitted dose curve; in most records, active means well fitted cell-killing curve with a large enough effect; inconclusive means small, poorly fitted or top-dose-only effect, or effect the other way; inactive means flat fitted curve, though single readings scatter. Potencies beside an inconclusive call are fits to weak or partial responses and may not hold up.
# Assay: qHTS assay for MDR1-selective chemotherapeutics: Primary screen using the drug-selected MDR subline cells KB-V1; further: nearly all actives have a fitted effect of over 60% in size
# Settings: KB-V1 MDR cells viability, CellTiter-Glo, 72 h; activity change, negative = cytotoxicity: at 46.1 µM (top of the series)
# Summary of the method: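 Compound-treated KB-V1 multidrug-resistant cells, 72 h, 37 degrees C; viability by CellTiter-Glo. Fitted qHTS curves give the values.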
# On the % scale 0 is the no-effect control and ±100 the full control effect; potency means the concentration at half of the fitted maximal effect.
Compound,"activity change, negative = cytotoxicity",Potency
O=C(c1ccco1)N1CCN(Cc2ccc(Cl)cc2)CC1,inactive: 0%,
Cc1ccc(NC(=S)NNC(=O)c2c(Cl)c(C)nn2C)cc1,,active: 16.4 µM
Cn1cc(C(=O)Nc2ccc(F)c(Cl)c2)cn1,,"inconclusive: 4.61 µM [rising, partial curve, poor fit]"
C(#Cc1ccc(C#CCN2CCOCC2)cc1)CN1CCOCC1,,active: 18.4 µM
CCOC(=O)[C@@H](C)N(C(=O)OC(C)(C)C)S(=O)(=O)N(Cc1ccccc1)[C@H](C(=O)OC)C(C)C,,"inconclusive: 13 µM [cytotoxic, partial curve]"
COC(=O)c1ccc(NC(=O)COc2ccc(S(=O)(=O)N3CCCCC3)cc2)cc1,,active: 5.17 µM
CCCCn1c(=O)[nH]c(=O)c2c1nc(-c1ccccc1F)n2Cc1ccccc1,,"inconclusive: 14.6 µM [cytotoxic, partial curve]"
CCOc1cccc2sc(N(CCCN(C)C)C(=O)c3ccc(S(=O)(=O)N(C)CC4CCCO4)cc3)nc12 (stereo not given),,"inconclusive: 10.3 µM [cytotoxic, partial curve, poor fit]"
CC(C)c1ccc(/C=N/n2c(COc3ccccc3)n[nH]c2=S)cc1,,"inconclusive: 20.6 µM [cytotoxic, single point]"
O=C(NC1CCC(O)CC1)c1ccc2c(c1)S(=O)(=O)N=C1CCCCCN12 (stereo not given),,"inconclusive: 32.6 µM [rising, single point]"
Cc1cc(OC(C)C(=O)N(Cc2ccco2)C2CCS(=O)(=O)C2)cc(C)c1Cl (stereo not given),,"inconclusive: 23.1 µM [cytotoxic, single point]"
Cc1ccc(/C=C2\SC(=S)N(CCC(=O)N3CCCCC3)C2=O)cc1,inactive: 1.21%,
Cc1cc(C)nc(N2CCN(c3ccc(F)cc3)CC2)n1,inactive: 0.233%,
CC(=O)NCCNc1nc(NC(C)C)nc2ccsc12,inactive: 6.38%,
CC1CC(C)CN(CCCSc2ccccc2)C1 (stereo not given),,"inconclusive: 20.6 µM [cytotoxic, single point]"
CC(=O)c1ccc(S(=O)(=O)N2CCCC(N(C)CCc3ccccn3)C2)cc1 (stereo not given),,"inconclusive: 29.1 µM [cytotoxic, single point]"
O=C(NCc1ccc2c(c1)OCO2)c1ccc(CN2CCOCC2)cc1,,"inconclusive: 16.4 µM [cytotoxic, partial curve]"
COc1cc2c3c(c1)/C(=C1/SC(=S)NC1=O)C(=O)N3C(C)(C)C=C2C,,active: 9.2 µM
Cn1c(=O)c2c(nc(SCC(=O)NCc3ccc4c(c3)OCO4)n2Cc2ccc(Cl)cc2)n(C)c1=O,,active: 4.11 µM
CCn1c(=O)c(C(=O)CN2CCc3ccccc32)c(N)n(Cc2ccccc2)c1=O,,"inconclusive: 16.4 µM [cytotoxic, single point]"
CC1CN(S(=O)(=O)c2cccc(C(=O)NCc3ccco3)c2)CC(C)O1 (stereo not given),inactive: -19%,
COc1ccc(-n2ccc(=O)c3c2CCCC3=O)cc1,,"inconclusive: 29.1 µM [rising, single point]"
COc1ccc(CCCNC(=O)C2CCC(=O)N(CCc3cccc(F)c3)C2)cc1 (stereo not given),,"inconclusive: 10.3 µM [cytotoxic, partial curve]"
O=C(Nc1cc(Cl)ccn1)C1CCN(S(=O)(=O)c2cccs2)CC1,,"inconclusive: 23.1 µM [cytotoxic, single point]"

Compound,"activity change, negative = cytotoxicity",Potency
COc1ccc(OCCNC(=S)Nc2cccc3ccccc23)cc1,,"inconclusive: 20.6 µM [cytotoxic, single point]"
CNS(=O)(=O)c1ccc(OC)c(-c2nnc3c4ccccc4c(C)nn23)c1,,"inconclusive: 18.4 µM [rising, single point]"
COc1ccccc1N1CCN(S(=O)(=O)c2c(C)sc3ncn(CC(=O)N(C)c4ccc(C(C)C)cc4)c(=O)c23)CC1,inactive: 8.98%,
O=S1(=O)CCC(n2ncc3c2/C(=C/c2ccccc2)CC3)C1 (stereo not given),,"inconclusive: 14.6 µM [cytotoxic, partial curve]"
CN1/C(=C\C=Nc2cc(S(=O)(=O)N3CCOCC3)ccc2N2CCOCC2)C(C)(C)c2ccccc21,,"inconclusive: 29.1 µM [cytotoxic, single point]"
OC(c1cccc(Cl)c1)c1ncc(-c2cccc3ccccc23)[nH]1 (stereo not given),inactive: -7.64%,
CC(C)(C)Nc1c(-c2ccc(O)cc2)nc2ccc(Cl)cn12,inactive: 10.3%,
O=C(Nc1ccccc1C(=O)Nc1nnc(C(F)(F)F)s1)c1ccccc1,,"inconclusive: 3.26 µM [cytotoxic, full curve]"
c1ccc(-n2nnnc2Oc2cccc3cccnc23)cc1,,"inconclusive: 13 µM [cytotoxic, partial curve]"
Cc1ccc(-c2c(C)sc(=NC(=O)c3ccco3)n2C)cc1,,"inconclusive: 14.6 µM [cytotoxic, partial curve]"
COC(=O)c1c(C)nc2ccccc2c1C(=O)O,inactive: 1.24%,
CCCc1cc(NCc2ccccn2)n2c(nc3ccccc32)c1C#N,,"inconclusive: 0.517 µM [cytotoxic, full curve, poor fit]"
CSc1ncnc2c1ncn2CCCNCC(C)c1ccccc1 (stereo not given),,"inconclusive: 4.11 µM [cytotoxic, partial curve]"
COCc1cc(C)n(CC(=O)Nc2ccc(NC(C)=O)cc2)c(=O)c1C#N,inactive: 9.56%,
CC(C)OCCCN(Cc1ccco1)C(=O)c1cc2c(s1)-c1ccccc1OC2,,active: 9.2 µM
O=C(CN1C(=O)C(=O)N(Cc2ccco2)C1=O)Nc1ccccc1,,"inconclusive: 4.61 µM [rising, full curve, poor fit]"
CN(c1ccccc1)S(=O)(=O)c1ccc(C(=O)Nc2ccncc2)cc1,,"inconclusive: 25.9 µM [cytotoxic, partial curve, poor fit]"
O=C(COc1ccc(-n2cnnn2)cc1)Nc1ccc(Br)cc1F,inactive: 1.64%,
COc1cccc(C(=O)O/N=C(\N)c2ccc([N+](=O)[O-])cc2)c1OC,inactive: -5.4%,
CN(C)S(=O)(=O)c1ccc2nc(NC(=O)c3cccnc3)sc2c1,inactive: 8.54%,
Cc1cccc(NC(=O)c2cnn3ccccc23)c1C,inactive: -28%,
Cc1ccc(S(=O)(=O)NCC2COc3ccccc3O2)cc1 (stereo not given),,"inconclusive: 29.1 µM [cytotoxic, single point]"
N#CCSc1nc2c(cc1C#N)CCCC2,,"inconclusive: 20.6 µM [cytotoxic, partial curve]"
COc1cc2c(cc1OC)/C(=C/c1ccc(N(C)C)cc1)C=C2,,"inconclusive: 16.4 µM [cytotoxic, single point]"

Compound,"activity change, negative = cytotoxicity",Potency
O=C(COc1nc2ccccc2nc1N1CCOCC1)N1CCc2ccccc21,,"inconclusive: 18.4 µM [cytotoxic, single point]"
COc1ccccc1-c1noc(-c2ccc(N3CCN(c4ccccc4)CC3)c([N+](=O)[O-])c2)n1,inactive: -3.03%,
CN(C)CC/C=C1\c2ccccc2Sc2cc(F)c(Cl)cc21,,"inconclusive: 29.1 µM [cytotoxic, single point]"
Cc1cccc(C(=O)N2CCc3cc(CNC(=O)CCc4ccccc4)ccc32)c1,inactive: 5.67%,
CC1(O)CC(c2ccc(Cl)cc2)=NN1C(=O)c1ccc(Cl)cc1 (stereo not given),,"inconclusive: 29.1 µM [cytotoxic, single point]"
COc1ccc(N(C(=O)Cc2cccs2)C(C(=O)NC2CCCC2)c2ccncc2)cc1 (stereo not given),,"inconclusive: 20.6 µM [cytotoxic, single point]"
CC1CCN(S(=O)(=O)c2ccc(NC(=O)C3CC(=O)N(c4ccccc4)C3)cc2)CC1 (stereo not given),,"inconclusive: 20.6 µM [cytotoxic, single point]"
Cc1ccc(Cl)cc1NC(=O)N1CCN(C)c2ncccc21,,"inconclusive: 8.2 µM [rising, partial curve, poor fit]"
COc1ccc(CN(C)C(=O)c2cc(-c3ccc(OC)c(OC)c3)nc3ccccc23)c(OC)c1,inactive: -21.2%,
Cc1ccc(S(=O)(=O)/N=C2/NC(=O)/C(=C\c3ccccc3)S2)cc1,,"inconclusive: 29.1 µM [cytotoxic, single point]"
Cc1ccccc1NC(=O)Cc1nc(COC(=O)c2cccc(O)c2)cs1,inconclusive: 2.17%,
CCC(=O)N(C)C[C@@H]1Oc2cc(Br)ccc2S(=O)(=O)N([C@@H](C)CO)C[C@@H]1C,,"inconclusive: 9.2 µM [cytotoxic, partial curve, poor fit]"
O=C(Nc1ccc2ccccc2c1)c1onc2c1CCCC2,inactive: -4.41%,
Cc1nn2c(NCCCN(C)C)c3c(nc2c1-c1ccccc1)CCCC3,,"inconclusive: 7.31 µM [cytotoxic, partial curve, poor fit]"
OC1Cc2ccccc2C1Nc1cccc(C(F)(F)F)c1 (stereo not given),,"inconclusive: 20.6 µM [cytotoxic, single point]"
COc1cc(S(=O)(=O)Nc2cccc3cn[nH]c23)c(OC)cc1C,,"inconclusive: 29.1 µM [cytotoxic, single point]"
CC(=O)Nc1c(C)ccc(S(N)(=O)=O)c1C,,"inconclusive: 18.4 µM [rising, partial curve, poor fit]"
N#Cc1cn(CCOc2ccccc2F)c2ccccc12,,"inconclusive: 20.6 µM [cytotoxic, partial curve, poor fit]"
COc1ccccc1CNS(=O)(=O)c1ccc(S(=O)(=O)NC2CC2)cc1,inactive: -21.8%,
COC(=O)c1cc(C(=O)OC)n(Cc2ccc(Cl)cc2Cl)n1,,"inconclusive: 18.4 µM [cytotoxic, partial curve, poor fit]"
Cc1cccnc1CN1CCN(C(=O)c2cc(COc3ccc4ncccc4c3)on2)CC1,,active: 6.51 µM
CC(=O)c1cccc(N2C(=NC(=O)COc3ccccc3)SC3CS(=O)(=O)CC32)c1 (stereo not given),,"inconclusive: 9.2 µM [rising, partial curve, poor fit]"

# Structural class, the entries above containing a thiophene ring, fused or not (5)
Compound,"activity change, negative = cytotoxicity",Potency
CC(=O)NCCNc1nc(NC(C)C)nc2ccsc12,inactive: 6.38%,
O=C(Nc1cc(Cl)ccn1)C1CCN(S(=O)(=O)c2cccs2)CC1,,"inconclusive: 23.1 µM [cytotoxic, single point]"
COc1ccccc1N1CCN(S(=O)(=O)c2c(C)sc3ncn(CC(=O)N(C)c4ccc(C(C)C)cc4)c(=O)c23)CC1,inactive: 8.98%,
CC(C)OCCCN(Cc1ccco1)C(=O)c1cc2c(s1)-c1ccccc1OC2,,active: 9.2 µM
COc1ccc(N(C(=O)Cc2cccs2)C(C(=O)NC2CCCC2)c2ccncc2)cc1 (stereo not given),,"inconclusive: 20.6 µM [cytotoxic, single point]"
